Results deposited as PubChem BioAssay AID504804 (Drosophila RNAi Screening Center, 2011)

Test: 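Fly genes whose loss lessens doxorubicin-driven cell death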 (primary screen)
Cells: Drosophila Kc cells
Reagent: long dsRNA against Drosophila genes, 0.5 µg dsRNA per well
Timing: 96 h (48 h knock-down, then 48 h drug)
Challenge: doxorubicin 5 µg/ml for 48 h, added 48 h after dsRNA
Read-out: 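Luminescent ATP counts per replicate, not normalised, reflecting viable cells after 48 h dsRNA knock-down followed by 48 h of 5 µg/ml doxorubicin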
Scale: raw ATP luminescence: higher = more viable cells, protection from doxorubicin
Call rule: 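z-score of 2 or more over plate mean in both duplicates, retained only when retests and separate dsRNAs confirm the protection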
The deposit covers about 19,000 reagents; below is an unselected part of those with a known target gene and a result. Of all reagents, 47 (0.25%) got an active call. 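Signals are raw, not normalised; exact z-scores behind calls not deposited; actives needed confirmation, so some wells reaching 2 SD are inactive.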 Entries without a mark were called inactive.

{"Target gene": "CG9452", "raw ATP luminescence, replicate 1": 75783, "raw ATP luminescence, replicate 2": 76757}
{"Target gene": "Smvt", "raw ATP luminescence, replicate 1": 50940, "raw ATP luminescence, replicate 2": 43660}
{"Target gene": "Epg5", "raw ATP luminescence, replicate 1": 48950, "raw ATP luminescence, replicate 2": 58330}
{"Target gene": "CG13243", "raw ATP luminescence, replicate 1": 75317, "raw ATP luminescence, replicate 2": 80863}
{"Target gene": "CG9592", "raw ATP luminescence, replicate 1": 58877, "raw ATP luminescence, replicate 2": 42823}
{"Target gene": "CG14450", "raw ATP luminescence, replicate 1": 54277, "raw ATP luminescence, replicate 2": 57303}
{"Target gene": "cdm", "raw ATP luminescence, replicate 1": 47110, "raw ATP luminescence, replicate 2": 70243}
{"Target gene": "hrm", "raw ATP luminescence, replicate 1": 58400, "raw ATP luminescence, replicate 2": 56917}
{"Target gene": "CG10417", "raw ATP luminescence, replicate 1": 72103, "raw ATP luminescence, replicate 2": 68737}

Records above whose gene name starts with C or c:
{"Target gene": "CG9452", "raw ATP luminescence, replicate 1": 75783, "raw ATP luminescence, replicate 2": 76757}
{"Target gene": "CG13243", "raw ATP luminescence, replicate 1": 75317, "raw ATP luminescence, replicate 2": 80863}
{"Target gene": "CG9592", "raw ATP luminescence, replicate 1": 58877, "raw ATP luminescence, replicate 2": 42823}
{"Target gene": "CG14450", "raw ATP luminescence, replicate 1": 54277, "raw ATP luminescence, replicate 2": 57303}
{"Target gene": "cdm", "raw ATP luminescence, replicate 1": 47110, "raw ATP luminescence, replicate 2": 70243}
{"Target gene": "CG10417", "raw ATP luminescence, replicate 1": 72103, "raw ATP luminescence, replicate 2": 68737}

Next results:
{"Target gene": "CG33177", "raw ATP luminescence, replicate 1": 4.22e5, "raw ATP luminescence, replicate 2": 3.69e5}
{"Target gene": "CG9921", "raw ATP luminescence, replicate 1": 1.61e5, "raw ATP luminescence, replicate 2": 1.94e5}
{"Target gene": "Plap", "raw ATP luminescence, replicate 1": 1.05e5, "raw ATP luminescence, replicate 2": 68117}
{"Target gene": "Gal", "raw ATP luminescence, replicate 1": 20623, "raw ATP luminescence, replicate 2": 25200}
{"Target gene": "CG12341", "raw ATP luminescence, replicate 1": 28887, "raw ATP luminescence, replicate 2": 78820}
{"Target gene": "Sgs3", "raw ATP luminescence, replicate 1": 50210, "raw ATP luminescence, replicate 2": 53097}
{"Target gene": "CG4956", "raw ATP luminescence, replicate 1": 57800, "raw ATP luminescence, replicate 2": 63970}
{"Target gene": "Pp2B-14D", "raw ATP luminescence, replicate 1": 2.41e5, "raw ATP luminescence, replicate 2": 2.04e5}
{"Target gene": "obst-B", "raw ATP luminescence, replicate 1": 1.05e5, "raw ATP luminescence, replicate 2": 68387}
{"Target gene": "Wnt6", "raw ATP luminescence, replicate 1": 44960, "raw ATP luminescence, replicate 2": 30927}
